All entries are inconclusive by the source's own rule. Clear calls are listed elsewhere.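 The calls were made as follows: active = compounds that lower cell viability with a fitted half-maximal potency within a set limit tied to top dose; inconclusive = flat fitted activity from -70 to -30, or unreliable fit; inactive = flat near zero, opposite effect, or weaker potency.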
Assay: CCRF-CEM leukemia cell viability loss, dose response, HRAS target identification, CellTiter-Glo ATP luminescence, 8/24/48 h, dry powder (AID 720607)
Settings: 8-48 h; at 35 µM (top of the series)

## CCC(=O)N(c1ccc(OC)c(Cl)c1)C(C(=O)NCCc1ccccc1)c1cccs1 (stereo unspecified)
  activity change, negative = cytotoxicity: inconclusive: -29.2%

— PubChem BioAssay AID720607 (Broad Institute, 2013)
